In patent US4864017 (dated 1989) one finds step yield data, which are given here for 2 substances.

The data set is described as follows: general procedure: solution-phase peptide synthesis; diethylphosphoryl cyanide, triethylamine.

Under “coupling step”, “[5S-[[(N-tert-Butyloxycarbonyl-L-phenylalanyl)-N^im -tosyl-L-histidyl]amino]-3R,4R-dihydroxy-2R-isopropyl-7-methyl-octanoyl]-L-isoleucyl-2-pyridylmethylamide” registered a step yield of 60%.

“[5S-[[(N-tert-Butyloxycarbonyl-L-phenylalanyl)-L-histidyl]amino]-3R,4R-dihydroxy-2R-isopropyl-7-methyloctanoyl]-L-isoleucyl-2pyridylmethylamide” returned a step yield (late stage modification step) of 76%.
